# Test results from the supplement of paper PMC12889115.
# The list shows a part of the results. Values are raw readings; no control value is given beside them.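 Primary screen: polymyxin B was added at a level permeabilizing Salmonella outer membranes while sparing inner membranes. DMSO wells, both with and without polymyxin B, established maximum growth. Plate-to-plate variation meant each plate was ranked on its own, and the lowest-OD600 compounds were selected as hits.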
# System: Salmonella enterica serovar Typhimurium SL1344
# Assay: bacterial growth OD600 after 18 h with compound and polymyxin B; higher = more bacterial growth (less inhibition)
# Settings: 50 µM, Mueller-Hinton broth
Compound,bacterial growth OD600 (polymyxin B 0.75 µg/mL),bacterial growth OD600 (polymyxin B 1 µg/mL)
O=C1N(CCc2ccccc2)C[C@@H]2C[C@@H](c3cccn3-c3ccccn3)N3CCC[C@@]123,0.797,
CCCc1cc(CNC(=O)c2ccc(N3CCCN(CCC)CC3)nc2)on1,,1.03
CN(Cc1ccc2nsnc2c1)Cc1nc(-c2cnccn2)no1,,0.968
CC(=O)NCC(=O)NC1CCCc2c1cnn2-c1ccc(C(C)(C)C)cc1 (stereo unspecified),0.006,
CN1CCN(C(=O)c2coc(COc3ccc(F)cc3Cl)n2)CC1,,0.906
O=C(CSc1ccccn1)NC1CCCc2c1cnn2-c1ccc(F)cc1F (stereo unspecified),,0.791
COc1ccc(OC2CCN(C3CCCC3)CC2)c(C(=O)NCc2ccco2)c1,0.882,
COCCN1CCCC(CNc2nc3nonc3nc2NC2CCCC2)C1 (stereo unspecified),,0.846
Cc1ncc2c(c1CNC(=O)c1ccsc1)CCN(C(=O)/C=C/c1cccc(F)c1F)C2,0.762,
CC(C)(C)C(=O)Nc1ccnn1C1CCN(C(=O)c2noc3c2CCCC3)CC1,,0.912
COc1ccccc1C(=O)N[C@@H]1c2ccccc2C2(CCN(Cc3cc(F)ccc3F)CC2)[C@H]1OC,0.961,
CCC(NC(=O)c1cc(NS(=O)(=O)N(C)C)cc2nc(CC(C)C)n(C)c12)c1cccs1 (stereo unspecified),0.949,
COc1ccc(OC)c(-c2cc(Cl)c3c(c2)CC(CNC(=O)C2CCCO2)O3)c1 (stereo unspecified),0.039,
CCc1noc(C)c1C(=O)N1CCC(CCC(=O)Nc2ccc(F)c(Cl)c2)CC1,,1.12
COc1ccc(OC)c(C(=O)N(Cc2ccc(OCc3ccccn3)cc2)[C@H]2CCCCNC2=O)c1,0.77,
CCCC(=O)N1CCCC(C(=O)Nc2cccc(-c3ccc(F)cc3)c2)C1 (stereo unspecified),,0.569

Compound,bacterial growth OD600 (polymyxin B 0.75 µg/mL),bacterial growth OD600 (polymyxin B 1 µg/mL)
COCCN(Cc1nc(-c2cc3c(cc2Cl)OCO3)oc1C)C(C)C,,1.01
CC#CC(=O)N1CCCC(N2CCN(Cc3ccc4c(c3)OCO4)CC2)C1 (stereo unspecified),,0.866
Cc1ccc(CNc2nc(CN3CCN(C=O)CC3)nc3ccccc23)cc1,0.81,
CCCCc1nc2cc(C(=O)NCCCOC(C)C)ccc2o1,0.836,
Cc1ccc(C(=O)N2CCC(C3(CCC(C)C)NC(=O)N(Cc4ccccn4)C3=O)CC2)c(C)c1 (stereo unspecified),0.91,
O=C(Cc1ccc(F)c(F)c1)N1CCC(C2(c3cccnc3)NC(=O)N(CC3CCCO3)C2=O)CC1 (stereo unspecified),0.817,
COc1ccc2cc(C(=O)C3CCCN(Cc4cc(C(C)C)[nH]n4)C3)ccc2c1 (stereo unspecified),,0.608
c1cc(CN2CCc3[nH]nc(-c4ccc5c(c4)OCO5)c3C2)ccn1,0.944,
O=C(c1ccccc1OC1CCN(Cc2ccccc2OCCO)CC1)N1CCCCC1,0.799,
C=CCO[C@H]1[C@H](NC(=O)COC)c2ccccc2C12CCN(C(=O)/C=C/c1cc(F)ccc1F)CC2,-0.004,
O=C(Nc1ccc(N2CCC(NC(c3ccccn3)C(F)(F)F)CC2)cc1)c1cnccn1 (stereo unspecified),0.835,
COc1ccccc1CCNC(=O)Cc1ccc(N2CCC(NCCc3cccs3)CC2)cc1,0.757,
COc1ccc(C(=O)Nc2ccnn2C2CCN(C(=O)c3cc(C)nc(C)n3)CC2)cc1,,0.913
Cc1oc(-c2ccc(F)cc2F)nc1CN(C)Cc1ccccc1C(F)(F)F,,0.856
COc1ccc(OC)c(Cc2nnc(CCC(=O)NC3CCCCCCC3)o2)c1,,0.537

# A section of the results above:
Compound,bacterial growth OD600 (polymyxin B 0.75 µg/mL),bacterial growth OD600 (polymyxin B 1 µg/mL)
COCCN(Cc1nc(-c2cc3c(cc2Cl)OCO3)oc1C)C(C)C,,1.01
CC#CC(=O)N1CCCC(N2CCN(Cc3ccc4c(c3)OCO4)CC2)C1 (stereo unspecified),,0.866
